PubChem BioAssay AID1159584, Peter MacCallum Cancer Centre | 2016
The deposit covers about 18,000 reagents; this is an unselected part. The record does not give: the amount of reagent, the time to read-out.

Purpose: 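Genes whose loss is lethal only together with E-cadherin loss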 (primary screen)
Cell system: human MCF10A breast epithelial cells, parental and CDH1-null
Reagent: siRNA against human genes
Detection: 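ATP luminescence (CellTiter-Glo) viability per line relative to mean mock wells over all plates, and the ratio of CDH1-null to parental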
Direction: CDH1-null / parental viability ratio: higher = CDH1-null cells survive relatively better than parental; CDH1-null viability vs mock: higher = more viable CDH1-null cells; parental viability vs mock: higher = more viable parental cells

no.	target	CDH1-null / parental viability ratio	CDH1-null viability vs mock (fraction of mock)	parental viability vs mock (fraction of mock)
1	MXD3 (MAX dimerization protein 3)	0.77	0.66	0.86
2	DEPDC1B (DEP domain containing 1B)	1.01	0.76	0.75
3	GNA13 (G protein subunit alpha 13)	1.07	1.06	0.99
4	OLFML3 (olfactomedin like 3)	1.06	0.76	0.72
5	KCNS2	1.46	0.7	0.48
6	KLHL40 (kelch like family member 40)	0.99	0.76	0.77
7	ASCL2 (achaete-scute family bHLH transcription factor 2)	1.16	1.07	0.92
8	DUSP12 (dual specificity phosphatase 12)	1.17	0.56	0.48
9	C16orf82 (chromosome 16 open reading frame 82)	0.99	1.03	1.04
10	LCN10 (lipocalin 10)	1.27	0.98	0.77
11	ZSCAN16 (zinc finger and SCAN domain containing 16)	0.91	1	1.1
12	ZC3HAV1 (zinc finger CCCH-type containing, antiviral 1)	0.87	0.78	0.9
13	ZNF180 (zinc finger protein 180)	0.89	0.7	0.79
14	IMPG2 (interphotoreceptor matrix proteoglycan 2)	0.79	0.68	0.86
15	AGT (angiotensinogen)	0.96	0.98	1.02
16	P2RY11 (purinergic receptor P2Y11)	1.31	0.88	0.67
17	KCNN4 (potassium calcium-activated channel subfamily N member 4)	1.11	0.8	0.72
18	PIK3C2G	1.15	0.94	0.82
19	VSTM1 (V-set and transmembrane domain containing 1)	0.62	0.5	0.8
20	SULT2B1 (sulfotransferase family 2B member 1)	1.09	0.7	0.64
21	TRERF1 (transcriptional regulating factor 1)	0.93	0.53	0.57
22	VSNL1 (visinin like 1)	1.05	1.09	1.04
23	ILDR1 (immunoglobulin like domain containing receptor 1)	1.25	1.2	0.96
24	TSR1 (TSR1 ribosome maturation factor)	1.15	1.12	0.97
25	FBH1 (F-box DNA helicase 1)	1.16	1.1	0.95
26	TMEM183BP (transmembrane protein 183B, pseudogene)	1.23	0.76	0.62
27	IFIT5 (interferon induced protein with tetratricopeptide repeats 5)	0.76	0.64	0.84
28	ZC3H12B (zinc finger CCCH-type containing 12B)	1.26	0.68	0.54

4 neighbouring entries from above:
no.	target	CDH1-null / parental viability ratio	CDH1-null viability vs mock (fraction of mock)	parental viability vs mock (fraction of mock)
3	GNA13 (G protein subunit alpha 13)	1.07	1.06	0.99
4	OLFML3 (olfactomedin like 3)	1.06	0.76	0.72
5	KCNS2	1.46	0.7	0.48
6	KLHL40 (kelch like family member 40)	0.99	0.76	0.77
